Assay results published in US5663297A (Hoffmann-La Roche Inc., priority 1989, dated 1997).
Some peptides are written in HELM: one residue between dots, names in brackets for other building blocks, links after the first $.

Assay: peptide synthesis
Conditions: acetate, trifluoroacetate, hydrochloride, hydroiodide

Substance	step yield (coupling step) [%]	step yield (late stage modification step) [%]
[N-Boc-3-(p-nitrophenyl)-L-alanyl]-Gly-Asp(OtBu)-Val-OtBu	72	–
[N-Boc-3-(p-guanidinophenyl)-L-alanyl]-Gly-Asp(OtBu)-Val-OtBu	–	54
[3-(p-guanidinophenyl)-L-alanyl]-Gly-Asp-Val-OH pentahydrochloride	–	53
PEPTIDE1{[L-Phe(4-Am)].G.D.V}$$$$V2.0	–	75
[N-Boc-3-(p-aminophenyl)-L-alanyl]-Gly-Asp(OtBu)-Val-OtBu	–	79
